At least one compound was matched to its structure with a doubt left.
Legend:
[1] = test system: Human Intestinal Myofibroblasts (InMyoFib); test: TGFβ1-induced expression of α-SMA protein in human intestinal fibroblasts (ELISA); format: cell-based; conditions: concentration of 1 μM; TGFβ1 3 ng/ml, 48 hours
Description: NTZ (A) or TZ (B) were added to serum-deprived intestinal fibroblasts (InMyoFib) 1 hour before the activation with TGFβ1 (3 ng/ml). After 48 hours of incubation, the expression of α-SMA was measured by ELISA. The obtained values were transformed into percentage inhibition over TGFβ1 control. Data are presented as mean (triplicates)±standard deviation (SD). Statistical analyses were performed by one-way ANOVA followed by Bonferroni post-hoc tests, using Sigma Plot 11.0 software. [*: p<0.05; **: p<0.01; ***: p<0.001 (comparison versus TGFβ1 3 ng/mL group)].
The Human Intestinal Myofibroblasts (InMyoFib) (Lonza) were cultured in Smooth Muscle Cell Basal Medium (SmBM-2™) (Lonza cat # CC-3181) that was supplemented with SmGM™-2 BulletKit™ (Lonza cat # CC-4149). The complete medium contains 5% fetal bovine serum. For the activation experiments with TGFβ1, the inMyoFib were plated at a density of 10×10^3 cells per well in 96-well plates. The next day, cell-culture medium was removed, and cells were washed with PBS (Invitrogen cat #14190). InMyoFib were deprived for 24 hours in serum-free, insulin-free and rhFGF-B-free medium. […]
The level of α-SMA was measured using a Sandwich ELISA. […]

[2] = test system: human primary hepatic stellate cells (hHSC); test: COL1A1 transcripts in TGFβ1-induced human HSC (RT-qPCR); format: cell-based; conditions: TGFβ1 1 ng/ml, 24 hours
Description: Serum-deprived HSC were preincubated for 1 hour with NTZ (A) or TZ (B) before the activation with TGFβ1 (1 ng/ml). After 24 hours of incubation, the expression of COL1A1 was measured by RT-qPCR. Expression values were transformed into fold induction over TGFβ1 control. Data are presented as mean (triplicates)±standard deviation (SD). Statistical analyses were performed by one-way ANOVA followed by Bonferroni post-hoc tests, using Sigma Plot 11.0 software. [*: p<0.05; **: p<0.01; ***: p<0.001 (comparison versus TGFβ1 1 ng/mL group)]. The human primary hepatic stellate cells (hHSC) (Innoprot) were cultured under standard conditions, as described above. The cells were subsequently plated at a density of 7×10^4 cells/well into 24-well plates for gene expression studies, and at a density of 2×10^4 cells/well into 96-well plates for the measure of α-SMA by ELISA. The next day, cell culture medium was removed, and cells were washed with PBS (Invitrogen cat #14190). hHSC were deprived for 24 hours in serum-free and SteCGS-free medium. […] Quantitative PCR was then carried out using the MyiQ Single-Color Real-Time PCR Detection System (Biorad). […] Expression levels were determined using the standard curve equation for both the housekeeping gene and the target gene (taking into account the specific PCR efficiency of each target gene).

Compound: CC(=O)Oc1ccccc1C(=O)Nc1ncc([N+](=O)[O-])s1 [NTZ, [2-[(5-nitro-1,3-thiazol-2-yl)carbamoyl]phenyl]ethanoate]
- antifibrotic effects (α-SMA) in human Intestinal myofibroblasts [1]: significant antifibrotic effects
- COL1A1 transcripts [2]: reduce
